# In PubChem BioAssay AID1259415 (National Center for Advancing Translational Sciences (NCATS), 2018):
# The whole screen tested about 410,000 compounds, of which about 18,000 (4.4%) were called active. Inconclusive results, whose numbers are uncertain, are shown with a selection of clear calls. No stated cut-off is given here; in the data, active means activity change below about -60%; inconclusive means no clear call, values can overlap the other calls; inactive means above about -39%.
# Test: qHTS Assay for inhibitors of the human cytomegalovirus (HCMV)
# Details: HFF cells, HCMV-luciferase reporter, 72 h; at 57.5 µM; stronger effect = lower value
# Summary of the method: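 Steps: HFFs plated, 16 h 37C; compounds added; HCMV-luciferase added to MOI 1 PFU/cell; 72 h 37C; OneGlo reagent, 5 min room temperature; luminescence read, normalized to controls.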
# On the % scale 0 is the no-effect control and ±100 the full control effect.
row,SMILES,"activity change, negative = inhibition"
1,Cc1cc(C)nc(OC(=O)c2c(Cl)cc(Cl)cc2Cl)n1,inconclusive: -45.2%
2,O=c1[nH]nc(N2CCOCC2)c(=O)[nH]1,inactive: -27.3%
3,Fc1ccc2[nH]c3c(N4CCc5ccccc5C4)ncnc3c2c1,inactive: -39.8%
4,CCC(=O)c1ccc(OCc2ccc(C#N)cc2)cc1,inconclusive: -42.3%
5,COc1cccc(NC(=S)NC(=O)/C=C/c2ccco2)c1,inactive: 116%
6,O=C(CN1CCCC1)N1c2ccccc2Sc2ccc(Cl)cc21,inactive: 68.3%
7,CC(C)CC(=O)Nc1ccc(C(=O)NNC(=S)NC(=O)C2CCCCC2)cc1,inconclusive: -41.6%
8,O=C(CN1CCCC1)Nc1ccccc1Cl,inactive: -4.29%
9,Cc1cc(C)cc(NC(=S)NCc2ccc3[nH]c4c(c3c2)CCCC4)c1,inactive: -39.6%
10,O=c1[nH]c(SCc2ccccc2)nc2ccsc12,inactive: -14.4%
11,CCOC(=O)C1(C)CCN1C(=O)Cc1ccc(OC)cc1 (stereo unspecified),inactive: 2.06%
12,Cc1cccc(CSCCNC(=S)Nc2ccccc2)c1,inconclusive: -52.7%
13,O=C1CC(c2ccccc2)CC(O)=C1C=NCc1ccncc1 (stereo unspecified),inactive: -6.58%
14,Cc1c(Cl)cccc1-n1nnnc1-c1cccs1,inconclusive: -59.6%
15,COc1ccccc1Oc1cn[nH]c1-c1ccc(O)cc1O,active: -66.2%
16,Cc1noc(C)c1COC(=O)C(c1ccccc1)c1ccccc1,inconclusive: -45.6%
17,CCc1ccc(NC(=O)COc2ccc(F)cc2C(=O)c2cnn(-c3ccccc3)c2)cc1,active: -102%
18,O=C(CCNC(=O)C1CCN(S(=O)(=O)c2ccccc2)CC1)NCc1ccc(Cl)c(Cl)c1,inconclusive: -48.2%
19,O=C(NCCc1c[nH]c2ccccc12)C(=O)NCC1OCCCN1S(=O)(=O)c1ccccc1 (stereo unspecified),inconclusive: -52.4%
20,CC(=O)Nc1cc2oc3ccccc3c2cc1[N+](=O)[O-],active: -83.8%
21,CCOCCCNC(=O)c1ccc(-c2nc(CS(=O)(=O)c3ccccc3)c(C)o2)cc1,inactive: -14.2%
22,COc1ccc(N2COC3c4cccc5cccc(c45)C32)cc1 (stereo unspecified),inconclusive: -45.2%
23,CC(=O)N1CCOc2ccc(S(=O)(=O)NCCc3ccc(Cl)cc3)cc21,inconclusive: 0%

# Gathered by group, those above containing a carbonyl joined to an NH by a bond outside any ring
row,SMILES,"activity change, negative = inhibition"
5,COc1cccc(NC(=S)NC(=O)/C=C/c2ccco2)c1,inactive: 116%
7,CC(C)CC(=O)Nc1ccc(C(=O)NNC(=S)NC(=O)C2CCCCC2)cc1,inconclusive: -41.6%
8,O=C(CN1CCCC1)Nc1ccccc1Cl,inactive: -4.29%
17,CCc1ccc(NC(=O)COc2ccc(F)cc2C(=O)c2cnn(-c3ccccc3)c2)cc1,active: -102%
18,O=C(CCNC(=O)C1CCN(S(=O)(=O)c2ccccc2)CC1)NCc1ccc(Cl)c(Cl)c1,inconclusive: -48.2%
19,O=C(NCCc1c[nH]c2ccccc12)C(=O)NCC1OCCCN1S(=O)(=O)c1ccccc1 (stereo unspecified),inconclusive: -52.4%
20,CC(=O)Nc1cc2oc3ccccc3c2cc1[N+](=O)[O-],active: -83.8%
21,CCOCCCNC(=O)c1ccc(-c2nc(CS(=O)(=O)c3ccccc3)c(C)o2)cc1,inactive: -14.2%

# Next part:

row,SMILES,"activity change, negative = inhibition"
1,CN1CCN(CCCC(=O)c2ccc(C3CCCC3)cc2)CC1,inactive: -8.6%
2,COCC(C)n1c(SCc2cc(=O)n3cc(C)ccc3n2)nc2ccccc2c1=O (stereo unspecified),active: -60.8%
3,Nc1nc2ncccc2cc1C(=O)NC1CCCCC1,inactive: -14.9%
4,CCOC(=O)c1c(-c2ccc(OC)cc2)csc1NC(=O)C1CCCO1 (stereo unspecified),inconclusive: -46.2%
5,O=C(NC1CCCCC1)c1cccc(OCc2ccccc2)c1,inconclusive: -42.8%
6,N#CCCN(Cc1ccccc1)C(=O)Nc1ccccc1,inconclusive: -47.7%
7,CCc1cc(-c2onc(C)c2-c2cscn2)c(O)cc1OC,inconclusive: -45%
8,Cc1cc(C(=O)COC(=O)c2ccc(NC(=O)CC#N)cc2)c(C)n1C1CC1,inconclusive: -47.1%
9,CCn1c(COc2c(C)cccc2C)nnc1SCC(=O)N1CCN(c2ccccc2)CC1,inconclusive: -51.4%
10,CCOC(=O)c1c(C)[nH]c(C)c1C(=O)COC(=O)/C=C/c1ccco1,inactive: 69.9%
11,COc1ccc(Oc2ccc(/C=N/NC(=O)c3cccnc3)cc2[N+](=O)[O-])cc1,active: -80.3%
12,CCN(CC)S(=O)(=O)c1cc(NC(=O)CCNC(=O)c2ccccc2Cl)ccc1C,inconclusive: -53.8%
13,CC1CCN(C(=S)NC2CCCCC2)CC1,inactive: 3.1%
14,Cc1cccc(NC(=O)c2ccc3c(c2)C(=O)N(c2ccccc2C)C3=O)n1,inconclusive: -46.5%
15,CN(C)CCCN1C(=O)c2cccc3c([N+](=O)[O-])ccc(c23)C1=O,inactive: -24.7%
16,Cc1ccc(CNC(=O)C2COc3ccccc3O2)cc1 (stereo unspecified),inconclusive: -51.5%
17,Cc1ccc(S(=O)(=O)Nc2ccc(NC(=O)CN3CCCCC3)c(Cl)c2)cc1,active: -102%
18,N=c1c(C(=O)NCc2ccc3c(c2)OCO3)cc2c(=O)n3ccccc3nc2n1Cc1cccnc1,inactive: -12.6%
19,O=C(Nc1ccc(-c2nc3ccccc3o2)cc1)c1ccc(N2CCOCC2)c([N+](=O)[O-])c1,inconclusive: -44.8%
20,CCOc1ccccc1CNC(=O)CCCc1cn(C)c2ccccc12,inactive: -21.1%
21,Cc1ccc(-n2c(SCC(=O)c3c(N)n(C)c(=O)n(C)c3=O)nc3sc4c(c3c2=O)CCCC4)c(C)c1,active: -67.9%
22,O=C(COC(=O)COc1ccc(Cl)cc1Cl)NC1CCCC1,inactive: -35%
23,CNS(=O)(=O)c1ccc(NC(=O)Nc2cccc(F)c2)cc1,active: -101%

row,SMILES,"activity change, negative = inhibition"
1,CCC(C)NC(=S)Nc1ccc(C(=O)OC)cc1 (stereo unspecified),active: -85.5%
2,CCOc1ccccc1NC(=O)Cn1c(=O)n(-c2ccc(OC)cc2OC)c(=O)c2c(C)c(C(=O)N(CC)CC)sc21,inconclusive: -41.5%
3,COCCNC(=O)C(c1ccc(C)o1)N(Cc1ccco1)C(=O)c1snc(C(N)=O)c1N (stereo unspecified),inconclusive: -41.1%
4,O=C(CCn1cnc(-c2ccccc2)c1-c1ccccc1)N/N=C/c1ccc(O)cc1,inconclusive: -56.7%
5,COc1ccc(-c2[nH]ncc2[C@@H]2C[C@H]3CN(Cc4ccccc4C)C(=O)[C@]34CCCN24)cc1,active: -71.2%
6,N=C1C(=O)OCC1c1ccccc1NC(=O)CN1CCOCC1 (stereo unspecified),inactive: 16.9%
7,CC(O)CNCCOc1ccccc1-c1ccccc1 (stereo unspecified),inconclusive: -41.2%
8,O=C(c1ccco1)N1N=C(c2ccncc2)CC1(O)C(F)(F)F (stereo unspecified),inconclusive: -45.4%
9,CC(C)(C)c1ccc(OCCCC(=O)Nc2ccc(S(N)(=O)=O)cc2)cc1,inconclusive: -58%
10,O=C(c1ccc([N+](=O)[O-])cc1)N1CCN(Cc2ccccc2[N+](=O)[O-])CC1,inconclusive: -46.5%
11,Cc1cccc(C(C)C)c1NC(=O)COC(=O)CNS(=O)(=O)c1ccccc1,inactive: 5.16%
12,O=C1CCC(=O)N1OCCCOc1ccccc1,inconclusive: -46.2%
13,COc1cccc(/C=C/C(=O)c2ccc3c(c2)OCCO3)c1OC,active: -95.7%
14,CC(CNC(=O)c1ccccc1Cl)c1ccccc1 (stereo unspecified),inactive: 5.86%
15,CCOC(=O)Cn1c(-c2ccccc2)nc2ccccc2c1=O,active: -94.7%
16,CCN(CC)C(=O)CSc1nnc2nnc3cc(OC)ccc3n12,inconclusive: -53.6%
17,CCOc1cccc(-c2nn3c(-c4ccccn4)nnc3s2)c1,inconclusive: -44.3%
18,O=C(Nc1ccccn1)C1CCCN(c2ncnc3c2nc2n3CCCCC2)C1 (stereo unspecified),inconclusive: -53.8%
19,COc1cc(/C=C/C(=O)O)ccc1OCc1cnc(Cl)s1,inconclusive: -40.2%
20,COc1ccc(/C=c2\s/c(=C(/C#N)C(=O)NCc3ccco3)n(-c3ccccc3)c2=O)cc1,inconclusive: -52%
21,O=C(OC1CCCCC1=O)c1cc(Cl)ccc1[N+](=O)[O-] (stereo unspecified),inconclusive: -55.7%
22,COC(=O)c1ccc2c(=O)n(-c3ccccc3)c(SCN3C(=O)c4ccccc4C3=O)nc2c1,inconclusive: -54.9%
23,COC(=O)c1cc(=O)n(Cc2ccco2)c(=Nc2ccccc2)s1,inconclusive: -50.9%

row,SMILES,"activity change, negative = inhibition"
1,Cc1ccccc1NC(=S)N(CCN1CCCCCC1)Cc1cccs1,inconclusive: -49.3%
2,O=C(Cn1c(=O)n(-c2ccccc2)c(=O)c2c3c(sc21)CCCC3)Nc1cccc(F)c1,inactive: -1.84%
3,O=[N+]([O-])c1ccc(/C=N/Nc2nc(-c3ccccc3)c3cc(Br)ccc3n2)o1,inconclusive: -41.1%
4,CSc1oc(-c2ccc(F)cc2)nc1S(=O)(=O)c1ccc(F)cc1,inconclusive: -54.6%
5,CN1CCN(C(=O)c2cc(=O)c3cc(Cl)ccc3o2)CC1,inconclusive: -42.9%
6,Cc1ccc(CSc2nnc(-c3ccncc3)n2N)cc1,inconclusive: -58.9%
7,Cc1ccc(Cn2cc(CN3CC(N4CCN(Cc5ccccc5F)CC4)CS3(=O)=O)nn2)cc1 (stereo unspecified),inconclusive: -45.6%
8,O=C(COCc1cc(-c2ccc3c(c2)OCO3)on1)Nc1cccnc1Cl,inactive: -5.1%
9,O=C(CCCn1c(=S)[nH]c2ccccc2c1=O)NCCSCc1ccccc1,inconclusive: -40.8%
10,CC(C)NC(=O)CSc1nccc(-c2cccs2)n1,inactive: -28.2%
11,CC(=O)c1cc(C#N)c(SCc2ccncc2)nc1C,inconclusive: -40.9%
12,Cc1ccc(C(=O)OCC(=O)Nc2ccc3[nH]c(=O)[nH]c3c2)o1,inconclusive: -44.5%
13,O=C(Nc1nnc(-c2ccc3c(c2)OCCO3)o1)c1ccc(Cc2ccccc2)cc1,inconclusive: -48.9%
14,COc1cccc2cc(C(=O)N3CCc4ccccc43)c(=O)oc12,active: -71.4%
15,CSc1cccc(Nc2cc(C(=O)NCCCN(Cc3ccccc3)C(C)C)c3ccccc3n2)c1,active: -104%
16,O=C1C=C(OCCCl)CC(c2cccc(Cl)c2)O1 (stereo unspecified),inactive: -12.6%
17,Cc1ccc(CCNc2ncnc3onc(C)c23)cc1,inconclusive: -59.8%
18,Clc1ccc(NNc2ccnc3cc(Cl)ccc23)cc1,active: -69.4%
19,CCOc1cc(-c2cc(-c3ccc(NC(C)=O)cc3)nc(N)c2C#N)ccc1O,active: -70.4%
20,CCn1c(C)c(C(=O)Nc2ccc(OC)cc2)c2cc(OC)ccc21,inconclusive: -41.7%
21,COc1ccc(C(=O)NCCC2=CCCCC2)cc1,inactive: -3.96%
22,Cc1ccccc1CNC(=O)c1ccccc1C(=O)O,inactive: -2.35%
